The values that follow come from article PMC10136643.

Chains of the proteins cited; added tags and fusions are not shown.
UniProt Q96SB4: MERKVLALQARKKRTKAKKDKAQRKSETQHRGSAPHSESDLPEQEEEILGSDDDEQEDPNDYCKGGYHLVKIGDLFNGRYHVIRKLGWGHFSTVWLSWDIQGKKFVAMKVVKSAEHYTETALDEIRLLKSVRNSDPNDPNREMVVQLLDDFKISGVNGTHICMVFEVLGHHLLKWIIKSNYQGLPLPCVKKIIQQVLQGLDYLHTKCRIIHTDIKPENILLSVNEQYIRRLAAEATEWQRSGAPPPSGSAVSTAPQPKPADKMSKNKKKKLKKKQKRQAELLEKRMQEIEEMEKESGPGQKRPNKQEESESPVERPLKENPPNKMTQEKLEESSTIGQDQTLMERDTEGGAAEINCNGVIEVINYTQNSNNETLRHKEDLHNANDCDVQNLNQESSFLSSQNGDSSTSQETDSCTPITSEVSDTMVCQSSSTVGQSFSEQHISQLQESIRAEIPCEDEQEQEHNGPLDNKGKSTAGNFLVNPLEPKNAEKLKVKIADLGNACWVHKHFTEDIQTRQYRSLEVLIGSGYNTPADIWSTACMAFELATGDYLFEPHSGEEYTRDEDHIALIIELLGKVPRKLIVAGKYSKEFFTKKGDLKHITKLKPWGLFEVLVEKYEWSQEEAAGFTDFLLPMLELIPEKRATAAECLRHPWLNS

In this assay the target is serine/arginine-rich splicing factor (SRSF) protein kinase-1 (human (endogenous in LCC2)) (UniProt Q96SB4). Nature of the assay: co-IP; SRPK1 immunoprecipitated from LCC2 lysate with anti-SRPK (sc-100443) at 4 °C overnight, Dynabead Protein A; Co-IP buffer 20 mM Tris-Cl pH 7.4, 150 mM NaCl, 0.5% NP-40, 10% glycerol; Western blot with anti-SRPK1 and anti-SRSF5.

Results are given in words; binding and its absence hold for the method and conditions named. In cells and extracts the contact can be indirect. Some entries that bind do so weakly or less than the wild type.

B1: SRSF5 (protein, UniProt Q13243 1-272)
chain: MSGCRVFIGRLNPAAREKDVERFFKGYGRIRDIDLKRGFGFVEFEDPRDADDAVYELDGKELCSERVTIEHARARSRGGRGRGRYSDRFSSRRPRNDRRNAPPVRTENRLIVENLSSRVSWQDLKDFMRQAGEVTFADAHRPKLNEGVVEFASYGDLKNAIEKLSGKEINGRKIKLIEGSKRHSRSRSRSRSRTRSSSRSRSRSRSRSRKSYSRSRSRSRSRSRSKSRSVSRSPVPEKSQKRGSSSRSKSPASVDRQRSRSRSRSRSVDSGN
For the molecule B1, the binding result was “binds”.
